{"source": "PubChem BioAssay AID743454 | Peter MacCallum Cancer Centre – 2014", "aim": "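Genes whose loss kills vorinostat-resistant colon cancer cells under vorinostat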 (primary screen)", "cell system": "human HCT116-VR colon cancer cells, selected for vorinostat resistance", "reagents": "siRNA pool against human genes, 40 nM siRNA pool", "time to read-out": "vorinostat for 24 h, read-out about 72 h after transfection", "conditions": "vorinostat at 2.5 µM final", "measurement": "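Cell viability by CellTiter-Fluor and caspase 3/7 activity by luminescence, each scaled to mock wells per plate, duplicates averaged, then robust z-scored over all plates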", "direction": "viability robust z-score: higher = more viable cells than screen typical; caspase robust z-score: higher = more caspase 3/7 activity than screen typical", "call rule": "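a knock-down is a hit when classed RV1 or RV2 for lowered viability, or CA1 or CA2 for caspase activation; those lethal without drug were dropped; hits were retested singly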", "note": "Shown is one part, drawn at random, of about 18,000 reagents tested. 450 of all reagents (2.5%) count as active. 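Single biological run; no consistent viability z cut-off exists, so the class columns, not z-scores, define the calls.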 No sequences are given here."}
{"target":"PLIN2","viability hit class":"no change","caspase hit class":"no change","viability robust z-score":-0.12,"caspase robust z-score":1.84,"Outcome":"inactive"}
{"target":"SDC1","viability hit class":"no change","caspase hit class":"no change","viability robust z-score":-3.56,"caspase robust z-score":1.77,"Outcome":"inactive"}
{"target":"TBC1D22A","viability hit class":"no change","caspase hit class":"no change","viability robust z-score":1.6,"caspase robust z-score":-0.16,"Outcome":"inactive"}
{"target":"CCDC187","viability hit class":"no change","caspase hit class":"no change","viability robust z-score":0.8,"caspase robust z-score":1,"Outcome":"inactive"}
{"target":"USP18","viability hit class":"no change","caspase hit class":"no change","viability robust z-score":-1.09,"caspase robust z-score":0,"Outcome":"inactive"}
{"target":"N4BP1","viability hit class":"no change","caspase hit class":"no change","viability robust z-score":1.88,"caspase robust z-score":-0.04,"Outcome":"inactive"}
{"target":"CADPS2","viability hit class":"no change","caspase hit class":"no change","viability robust z-score":-0.88,"caspase robust z-score":1.14,"Outcome":"inactive"}
{"target":"SLAMF6","viability hit class":"no change","caspase hit class":"no change","viability robust z-score":1.11,"caspase robust z-score":0.86,"Outcome":"inactive"}
{"target":"LEPROT","viability hit class":"no change","caspase hit class":"no change","viability robust z-score":0.72,"caspase robust z-score":-0.4,"Outcome":"inactive"}
{"target":"RAPGEF1","viability hit class":"no change","caspase hit class":"no change","viability robust z-score":-0.26,"caspase robust z-score":-0.7,"Outcome":"inactive"}
{"target":"HDGFL3","viability hit class":"no change","caspase hit class":"no change","viability robust z-score":0.98,"caspase robust z-score":0.7,"Outcome":"inactive"}
{"target":"CBX8","viability hit class":"no change","caspase hit class":"no change","viability robust z-score":0.83,"caspase robust z-score":-0.55,"Outcome":"inactive"}
{"target":"LONP1","viability hit class":"no change","caspase hit class":"no change","viability robust z-score":0.81,"caspase robust z-score":-0.47,"Outcome":"inactive"}
{"target":"U2AF2","viability hit class":"no change","caspase hit class":"no change","viability robust z-score":-2.72,"caspase robust z-score":-0.48,"Outcome":"inactive"}
{"target":"STARD13","viability hit class":"no change","caspase hit class":"no change","viability robust z-score":0.82,"caspase robust z-score":2.46,"Outcome":"inactive"}
{"target":"C11orf71","viability hit class":"no change","caspase hit class":"no change","viability robust z-score":-2.24,"caspase robust z-score":-0.52,"Outcome":"inactive"}
{"target":"OR11H12","viability hit class":"no change","caspase hit class":"no change","viability robust z-score":0.05,"caspase robust z-score":0.52,"Outcome":"inactive"}
{"target":"CDKAL1","viability hit class":"no change","caspase hit class":"no change","viability robust z-score":0.44,"caspase robust z-score":-0.32,"Outcome":"inactive"}
{"target":"ACP2","viability hit class":"no change","caspase hit class":"no change","viability robust z-score":-1,"caspase robust z-score":-0.15,"Outcome":"inactive"}
{"target":"KIAA0586","viability hit class":"no change","caspase hit class":"no change","viability robust z-score":-0.28,"caspase robust z-score":1,"Outcome":"inactive"}
{"target":"PIGH","viability hit class":"no change","caspase hit class":"no change","viability robust z-score":0.2,"caspase robust z-score":-0.3,"Outcome":"inactive"}
